Data taken from patent US11484608B2, “Non-invasive assessment of hepatic mitochondrial metabolism by positional isotopomer NMR tracer analysis (PINTA)” (YALE UNIVERSITY, priority 2017, dated 2022).

Test system: hepatic glucose production, VPC and VCS (InsP3R-I signaling)
Assay: Acute 2 hr glucagon infusion in WT and liver-specific InsP3R-I KO mice
Format: in vivo, mouse
Source text: All protocols were approved by the Yale University Animal Care and Use Committee. Liver-specific InsP3R-I KO mice were generated as described (Feriod, et al. Hepatology Communications 1, 23-35, 2017) and in all experiments, littermates were studied at 10-12 weeks of age. They were fed standard chow (Teklad #2018) and housed on a 12 hr light/dark cycle in the Yale Animal Resources Center. To knock down ATGL in a liver-specific manner, an adeno-associated virus targeting ATGL (Vector BioLabs, 10^12 gc per mouse) was administered by retro-orbital injection four weeks prior to studies. Male mice were used for in vivo studies, while female mice were used for in vitro studies, unless otherwise specified. One week prior to in vivo studies, mice underwent surgery under isoflurane anesthesia to place a catheter in the jugular vein. Post-surgical recovery was confirmed by regaining the pre-surgical body weight prior to any in vivo studies. They were fasted overnight, unless otherwise stated, prior to in vivo studies. […] Mice were euthanized using IV pentobarbital at the conclusion of the terminal study.
In the rat studies, blood was collected from the jugular venous catheter. In both species, samples were immediately centrifuged (12,000 rpm) to separate plasma from red blood cells. PINTA analysis of hepatic mitochondrial fluxes was employed in both rats and mice (see Example 1). Briefly, mice were infused with a two-hour primed (5 min, 3×)-continuous infusion of [3-^13C] lactate (40 μmol kg^−1 min^−1) and [1,2,3,4,5,6,6-^2H7] glucose (0.1 mg kg^−1 min^−1). Rats were infused with lactate at the same rate, as well as [3-^3H] glucose (0.1 mCi kg^−1 min^−1). At the conclusion of the study, animals were euthanized with IV pentobarbital.
Total glucose turnover (i.e. hepatic glucose production) was measured by determining the specific activity of [^3H] glucose in plasma using a scintillation counter, and the VPC/VHGP ratio was calculated using the equation
[formula] and calculated absolute VCS by dividing VPC by VPC/VCS. The derivations of each equation are described in detail in Example 1. The possible contribution of [^13C] bicarbonate to label the TCA cycle was corrected for as follows. Liver [^13C] bicarbonate enrichment was measured by GC-MS (HP-1 column: 12 m×0.2 mm×0.33 μm film, isothermal: 110° C.). Liver tissue (˜[…]) was placed in a GC-MS vial, purged with N2 gas, and sealed. To each sample, a saturated aqueous solution of citric acid (50 μl) was injected into the vial through the cap. After ten minutes, CO2 was sampled from the head-space and ions with m/z 44 and 45 daltons were monitored using electron impact ionization.
Plasma glucose concentrations were measured using a YSI Glucose Analyzer. […] Plasma NEFA concentrations were measured using the Wako NEFA assay, while plasma glycerol and plasma and liver amino acid concentrations were measured by GC/MS. […] Protein concentrations were measured by Western blot, using antibodies from Santa Cruz (PC, PEPCK, CAMKII), Cell Signaling (ATGL, pCAMKIV, CAMKIV, pCRTC2, CRTC2, pACC, ACC, pAMPK, AMPK, pHSL, HSL, GAPDH, and β-actin), Novus Biologicals (pCAMKII), Abcam (pATGL), LSBio (pInsP3R-I), and BD Transduction Laboratories (InsP3R-II, InsP3R-III, PKCε).

## glucagon
InsP3R1 KO +glucagon
  Liver Glutamate/glutamine: 0.93 ± 0.10 µmol/g
  Liver Glycine: 0.22 ± 0.06^+ μmol/g
  Liver Isoleucine: 0.062 ± 0.011 µmol/g
  Liver Lactate: 0.94 ± 0.24 µmol/g
  Liver Leucine: 0.90 ± 0.42 µmol/g
  Liver Phenylalanine: 0.091 ± 0.032 µmol/g
  Liver Serine: 0.016 ± 0.005^+ μmol/g
InsP3R1 KO after glucagon
  Plasma Aspartate/asparagine: 0.055 ± 0.023 mM
  Plasma Glutamate/glutamine: 0.27 ± 0.06 mM
  Plasma Isoleucine: 0.54 ± 0.06 mM
  Plasma Lactate: 1.31 ± 0.10 mM
  Plasma Leucine: 0.66 ± 0.08 mM
  Plasma Phenylalanine: 0.090 ± 0.007 mM
  Plasma Serine: 0.037 ± 0.005 mM
WT +glucagon
  Liver Glutamate/glutamine: 0.74 ± 0.10 µmol/g
  Liver Glycine: 0.13 ± 0.03 µmol/g
  Liver Isoleucine: 0.033 ± 0.004 µmol/g
  Liver Lactate: 0.80 ± 0.28 µmol/g
  Liver Leucine: 0.22 ± 0.02 µmol/g
  Liver Phenylalanine: 0.040 ± 0.004 µmol/g
  Liver Serine: 0.007 ± 0.002 µmol/g
WT after glucagon
  Plasma Aspartate/asparagine: 0.013 ± 0.004 mM
  Plasma Glutamate/glutamine: 0.30 ± 0.01 mM
  Plasma Isoleucine: 0.39 ± 0.02 mM
  Plasma Lactate: 1.59 ± 0.39 mM
  Plasma Leucine: 0.48 ± 0.02 mM
  Plasma Phenylalanine: 0.065 ± 0.003 mM
  Plasma Serine: 0.032 ± 0.003 mM
